The values below come from paper PMC11602657, “Nap1 and Kap114 co-chaperone H2A-H2B and facilitate targeted histone release in the nucleus” (The Journal of Cell Biology, 2024).

The chains behind the UniProt entries cited, without tags or fusion partners. Where a name states a change or a piece, a line headed by the entry shows the natural chain unless it says otherwise.
UniProt P53067: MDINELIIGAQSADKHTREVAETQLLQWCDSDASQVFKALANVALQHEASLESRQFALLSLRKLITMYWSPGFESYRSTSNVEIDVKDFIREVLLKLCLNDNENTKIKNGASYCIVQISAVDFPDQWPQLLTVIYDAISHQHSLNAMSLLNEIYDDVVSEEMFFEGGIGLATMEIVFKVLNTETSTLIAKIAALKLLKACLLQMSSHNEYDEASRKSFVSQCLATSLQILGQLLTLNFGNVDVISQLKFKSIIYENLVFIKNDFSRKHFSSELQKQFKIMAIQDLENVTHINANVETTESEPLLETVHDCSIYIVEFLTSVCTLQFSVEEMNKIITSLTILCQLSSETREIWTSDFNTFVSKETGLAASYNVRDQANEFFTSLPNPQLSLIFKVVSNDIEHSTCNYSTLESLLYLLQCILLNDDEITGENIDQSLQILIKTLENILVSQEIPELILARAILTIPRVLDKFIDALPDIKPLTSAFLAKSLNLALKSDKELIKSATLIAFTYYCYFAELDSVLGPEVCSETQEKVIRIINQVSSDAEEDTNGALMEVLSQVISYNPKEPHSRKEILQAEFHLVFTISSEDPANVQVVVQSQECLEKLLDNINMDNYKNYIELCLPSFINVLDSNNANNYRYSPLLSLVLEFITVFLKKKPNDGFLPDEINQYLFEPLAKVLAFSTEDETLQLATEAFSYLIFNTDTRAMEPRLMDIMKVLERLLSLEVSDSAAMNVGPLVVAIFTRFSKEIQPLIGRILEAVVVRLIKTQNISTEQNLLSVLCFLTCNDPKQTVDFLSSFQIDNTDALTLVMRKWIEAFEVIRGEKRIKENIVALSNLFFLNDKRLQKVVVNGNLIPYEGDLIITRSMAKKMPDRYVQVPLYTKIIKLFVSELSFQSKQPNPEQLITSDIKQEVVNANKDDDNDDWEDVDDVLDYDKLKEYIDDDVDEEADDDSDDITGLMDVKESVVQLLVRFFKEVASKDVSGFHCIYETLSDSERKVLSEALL

Like-named read-outs stand apart in the source and are kept apart here. No constants are given. Whether binding was seen depends on the method and setting. For some assays here: Binding can be weak; no strength is given.

Assay [1] addresses MBP-Kap114 Δh19L (S. cerevisiae) (UniProt P53067). The experiment in a line: pull-down; MBP-Kap114 (WT or mutant; or MBP alone) 1 µM immobilized on amylose resin, equimolar Nap1_(2) ± H2A-H2B (1 or 2 µM) ± Ran^GTP; Assay Buffer (20 mM HEPES pH 7.4, 150 mM NaCl, 2 mM MgCl2, 10% glycerol, 2 mM DTT), 30 min at 4°C; Coomassie-stained SDS-PAGE; both purified.
Assay [2] shares this target. The assay is described as above. This is another data set of the same source.

Take “Sc Ran^GTP (Gsp1 residues 1–179, Q71L) (from UniProt P32835 1-179) (enzyme)”: in assay [1], the binding entry is “binds”.

B1: Nap1 FL (C200A, C249A, C272A) (natural protein, S. cerevisiae, UniProt P25293 1-417, looked up)
chain: MSDPIRTKPKSSMQIDNAPTPHNTPASVLNPSYLKNGNPVRAQAQEQDDKIGTINEEDILANQPLLLQSIQDRLGSLVGQDSGYVGGLPKNVKEKLLSLKTLQSELFEVEKEFQVEMFELENKFLQKYKPIWEQRSRIISGQEQPKPEQIAKGQEIVESLNETELLVDEEEKAQNDSEEEQVKGIPSFWLTALENLPIVADTITDRDAEVLEYLQDIGLEYLTDGRPGFKLLFRFDSSANPFFTNDILAKTYFYQKELGYSGDFIYDHAEGAEISWKDNAHNVTVDLEMRKQRNKTTKQVRTIEKITPIESFFNFFDPPKIQNEDQDEELEEDLEERLALDYSIGEQLKDKLIPRAVDWFTGAALEFEFEEDEEEADEDEDEEEDDDHGLEDDDGESAEEQDDFAGRPEQAPECKQS
notes: Nap1 (nucleosome assembly protein 1), S. cerevisiae, full length (FL), with C200A, C249A, C272A for specific labeling on 414C; pHAT4 vector, gift from Sheena D'Arcy; Counted as a dimer (Nap1_(2)) in all molar ratios; alone a mixture of dimers and tetramers; also called Nap1_(2); Nap1_(2) FL; source: E. coli BL21 gold, purified (Ni-NTA, TEV cleavage, HiTrap Q, Superdex S200)
Consider B1, for which the binding entry in assay [2] was “no binding (tested: 1 µM)”.
